Laboratory results: PubChem BioAssay AID1159584 (Peter MacCallum Cancer Centre, 2016)
The whole screen tested about 18,000 reagents; below is a random part of them. No sequences are given here. The record does not give: the amount of reagent, the time to read-out.

Screen: 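Genes that CDH1-null MCF10A cells selectively depend on to survive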 (primary screen)
System: human MCF10A breast epithelial cells, parental and CDH1-null
Reagents: siRNA against human genes
Measurement: 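ATP luminescence (CellTiter-Glo) viability per line relative to mean mock wells over all plates, and the ratio of CDH1-null to parental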
Scale: CDH1-null / parental viability ratio: higher = CDH1-null cells survive relatively better than parental; CDH1-null viability vs mock: higher = more viable CDH1-null cells; parental viability vs mock: higher = more viable parental cells

target gene,CDH1-null / parental viability ratio,CDH1-null viability vs mock (fraction of mock),parental viability vs mock (fraction of mock)
USP8 (ubiquitin specific peptidase 8),1.13,0.88,0.78
CCDC32 (coiled-coil domain containing 32),1.11,0.61,0.55
RGS4 (regulator of G protein signaling 4),1.04,0.77,0.74
ACACA (acetyl-CoA carboxylase alpha),1.22,1.12,0.92
MORC4 (MORC family CW-type zinc finger 4),0.95,1.06,1.11
TUBGCP4 (tubulin gamma complex component 4),1.35,0.62,0.46
UTS2B (urotensin 2B),0.79,0.52,0.66
ELF3 (E74 like ETS transcription factor 3),0.99,0.91,0.92
SNAP23 (synaptosome associated protein 23),0.48,0.28,0.58
KCNAB1,1.2,1.1,0.92
TRIM58 (tripartite motif containing 58),0.97,0.76,0.78
TLCD1 (TLC domain containing 1),0.69,0.58,0.84
ZC4H2 (zinc finger C4H2-type containing),1.19,0.56,0.47
ZDHHC24 (zDHHC palmitoyltransferase 24),0.87,0.66,0.76
FOLR2 (folate receptor beta),1,0.68,0.68
SVBP (small vasohibin binding protein),1.05,0.92,0.88
KLHL12 (kelch like family member 12),1.07,0.88,0.82
GPR31 (G protein-coupled receptor 31),1.41,1.06,0.75
TMEM140 (transmembrane protein 140),0.66,0.65,0.98
VWA5B1 (von Willebrand factor A domain containing 5B1),1.11,0.9,0.81
STK33 (serine/threonine kinase 33),0.9,0.76,0.84
TUFT1 (tuftelin 1),1.15,0.46,0.4
MKKS (MKKS centrosomal shuttling protein),1.25,0.74,0.59
VTI1A (vesicle transport through interaction with t-SNAREs 1A),1.31,1.28,0.98
CXXC4 (CXXC finger protein 4),1.04,0.5,0.48
AKAP9 (A-kinase anchoring protein 9),1.02,0.94,0.92
GRB2 (growth factor receptor bound protein 2),1.25,0.25,0.2
DNAH10 (dynein axonemal heavy chain 10),1.14,0.82,0.72
NFKBIB (NFKB inhibitor beta),0.76,0.63,0.83
AKNA (AT-hook transcription factor),1.02,0.62,0.61
TSG101 (tumor susceptibility 101),1.18,0.97,0.82
FGFR3 (fibroblast growth factor receptor 3),0.68,0.5,0.73
FCN2 (ficolin 2),1.16,1.4,1.21
TMOD3 (tropomodulin 3),1.09,0.76,0.7
PSPH (phosphoserine phosphatase),1.48,0.92,0.62
TRIM13 (tripartite motif containing 13),0.91,0.88,0.97
MEIOB (meiosis specific with OB-fold),1.08,0.66,0.61
NDST2 (N-deacetylase and N-sulfotransferase 2),1.31,1.05,0.8
ADGRL1 (adhesion G protein-coupled receptor L1),0.76,0.75,0.99
HOXA11 (homeobox A11),0.84,0.84,1
"NSF (N-ethylmaleimide sensitive factor, vesicle fusing ATPase)",0.79,0.68,0.86
TTLL12 (tubulin tyrosine ligase like 12),1,0.4,0.4
SPMIP9 (sperm microtubule inner protein 9),1.22,0.66,0.54
SACM1L (SAC1 like phosphatidylinositide phosphatase),1.11,0.92,0.83
FIGNL1 (fidgetin like 1),1.04,0.77,0.74
RNF222 (ring finger protein 222),1.05,1.02,0.97
BAIAP2 (BAR/IMD domain containing adaptor protein 2),1.04,1,0.96
CTDSP2 (CTD small phosphatase 2),1.34,0.94,0.7
QPCT (glutaminyl-peptide cyclotransferase),0.87,0.6,0.69
"B4GALT4 (beta-1,4-galactosyltransferase 4)",0.89,0.73,0.82
SPATA6L (spermatogenesis associated 6 like),0.99,0.91,0.92
IDS (iduronate 2-sulfatase),1.06,1.06,1
ACD,1.26,0.53,0.42
SLC60A1,1.04,0.98,0.94
TPP2 (tripeptidyl peptidase 2),1.17,0.84,0.72
"TMEM129 (transmembrane protein 129, E3 ubiquitin ligase)",0.86,0.55,0.64
BOLL (boule RNA binding protein),0.96,0.98,1.02
PPP1R1C (protein phosphatase 1 regulatory inhibitor subunit 1C),1.6,0.83,0.52
KBTBD6 (kelch repeat and BTB domain containing 6),0.84,0.92,1.09
SERINC4 (serine incorporator 4),1.16,0.72,0.62
C3orf52 (chromosome 3 open reading frame 52),1.2,0.72,0.6
C8B (complement C8 beta chain),0.99,0.73,0.74
CDK11B (cyclin dependent kinase 11B),1.09,0.74,0.68
TNFRSF13B (TNF receptor superfamily member 13B),0.68,0.45,0.66
ARR3 (arrestin 3),1.29,0.89,0.69
CDC50A (cell division cycle 50 P4-ATPase accessory subunit A),1.01,1.01,1
FANCL (FA complementation group L),0.97,0.98,1.01
CNOT4 (CCR4-NOT transcription complex subunit 4),0.75,0.43,0.57
